Results on 3 substances are retold here after US20040102610A1 (Genentech, published 2004).

By UniProt entry, the sequences of proteins in these tests, tags left out. Where a name states a change or a piece, a line headed by the entry shows the natural chain unless it says otherwise.
UniProt Q9NRP7: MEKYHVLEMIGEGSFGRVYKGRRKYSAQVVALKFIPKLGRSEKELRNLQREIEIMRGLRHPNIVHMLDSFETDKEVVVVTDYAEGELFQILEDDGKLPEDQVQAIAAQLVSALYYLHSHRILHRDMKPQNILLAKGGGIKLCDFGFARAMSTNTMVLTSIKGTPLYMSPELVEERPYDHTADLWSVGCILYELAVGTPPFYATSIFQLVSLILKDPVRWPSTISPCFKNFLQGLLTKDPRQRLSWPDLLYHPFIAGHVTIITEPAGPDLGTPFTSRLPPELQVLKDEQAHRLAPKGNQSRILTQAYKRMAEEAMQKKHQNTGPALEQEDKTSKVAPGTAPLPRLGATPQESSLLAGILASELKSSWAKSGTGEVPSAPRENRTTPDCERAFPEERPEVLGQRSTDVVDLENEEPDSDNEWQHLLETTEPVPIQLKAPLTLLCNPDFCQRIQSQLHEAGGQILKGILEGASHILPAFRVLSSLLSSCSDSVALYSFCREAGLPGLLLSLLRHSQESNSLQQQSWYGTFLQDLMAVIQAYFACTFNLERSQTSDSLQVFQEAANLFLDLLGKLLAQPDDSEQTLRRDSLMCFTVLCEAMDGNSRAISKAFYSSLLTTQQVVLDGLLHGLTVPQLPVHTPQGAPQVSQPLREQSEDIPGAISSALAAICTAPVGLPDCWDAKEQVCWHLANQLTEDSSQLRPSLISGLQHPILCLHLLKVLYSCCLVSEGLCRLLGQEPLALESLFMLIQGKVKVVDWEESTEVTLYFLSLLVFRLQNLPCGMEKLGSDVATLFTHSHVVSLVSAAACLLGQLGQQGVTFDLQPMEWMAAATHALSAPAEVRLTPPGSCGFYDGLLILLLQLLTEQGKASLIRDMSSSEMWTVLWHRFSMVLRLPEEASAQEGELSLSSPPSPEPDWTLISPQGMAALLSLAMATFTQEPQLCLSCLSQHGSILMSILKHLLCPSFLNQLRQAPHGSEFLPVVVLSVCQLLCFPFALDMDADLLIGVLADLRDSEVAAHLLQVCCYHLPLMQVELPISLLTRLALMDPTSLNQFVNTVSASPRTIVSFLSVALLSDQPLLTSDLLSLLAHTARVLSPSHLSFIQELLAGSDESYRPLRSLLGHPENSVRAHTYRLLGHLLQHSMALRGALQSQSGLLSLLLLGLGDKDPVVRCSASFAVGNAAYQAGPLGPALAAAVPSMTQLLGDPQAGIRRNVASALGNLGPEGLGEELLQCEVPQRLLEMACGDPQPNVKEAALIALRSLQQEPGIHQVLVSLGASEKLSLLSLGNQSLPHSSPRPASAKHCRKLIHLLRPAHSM

In assay [1] the target is T1, hSu(fu) C-Myc (human) (UniProt Q9UMX1).
T1 sequence (looked up): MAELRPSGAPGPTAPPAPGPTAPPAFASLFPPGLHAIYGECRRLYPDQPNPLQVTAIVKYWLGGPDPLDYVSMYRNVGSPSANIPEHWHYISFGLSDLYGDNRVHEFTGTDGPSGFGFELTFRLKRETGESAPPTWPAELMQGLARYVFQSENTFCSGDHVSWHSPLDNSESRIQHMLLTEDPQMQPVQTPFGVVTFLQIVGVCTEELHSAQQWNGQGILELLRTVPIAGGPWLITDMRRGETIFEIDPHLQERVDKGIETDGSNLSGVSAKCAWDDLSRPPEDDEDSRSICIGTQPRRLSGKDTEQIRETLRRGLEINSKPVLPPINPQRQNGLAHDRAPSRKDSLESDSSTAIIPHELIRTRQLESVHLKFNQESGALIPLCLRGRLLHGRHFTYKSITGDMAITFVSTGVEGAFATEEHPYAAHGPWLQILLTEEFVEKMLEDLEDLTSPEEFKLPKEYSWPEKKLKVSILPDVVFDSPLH
The assay is described as follows: anti-Myc IP of hSu(fu) C-Myc from co-transfected 293 cells, immunoblot (FIG. 15B). In general terms: Immunoblotting shows a protein as a band on a membrane.

Assay [2] has as its target T1, hSu(fu) C-Myc (human). In words: 293 cells, anti-Flag IP, immunoblot.
Assay [3] has as its target T1, hSu(fu) C-Myc (human). In words: co-transfection in 293 cells, anti-Flag IP, immunoblot.
Assay [4] concerns the target T2, hSu(fu) C-Flag (human) (UniProt Q9UMX1).
T2 sequence (looked up): T1 sequence (looked up)
In words: 293 cells, anti-Flag IP, immunoblot.

Assay [5] addresses T2, hSu(fu) C-Flag (human). In words: co-transfection in 293 cells, anti-Flag IP, immunoblot.

No constants are given. Whether binding was seen depends on the method and setting. Some results given as binding are weak or reduced against the parent protein; the word gives no strength. Sequences can lack the tags named with a protein.

For “hFu ΔC (from UniProt Q9NRP7 1-823) (enzyme)”, the binding entry with hSu(fu) C-Myc (human) [1] was “binds”.
Consider “hfused C-Flag (from UniProt Q9NRP7 1-1315) (enzyme)”, for which the binding result with hSu(fu) C-Myc (human) [2] and with hSu(fu) C-Myc (human) [3] was “binds” in each case.
On to “human fused (from UniProt Q9NRP7 1-1315) (enzyme)”, for which the binding result in the assay with hSu(fu) C-Flag (human) [4] and in the assay with hSu(fu) C-Flag (human) [5] was “binds” throughout.
